Measurements reported in PubChem BioAssay AID504784 (Drosophila RNAi Screening Center, 2011)
The deposit covers about 17,000 reagents; below is an unselected part of those that have a named target and a result. 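Each column is one replicate's B-score; the combined score over replicates was not deposited, so single values may mislead.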 Names joined by + are all predicted targets of the reagent. Further read-outs or replicates are left out here.

Screen: 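Fly genes whose silencing alters how much lipid cells keep in droplets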 (primary screen)
Cell system: Drosophila Kc167 embryonic cells
Knock-down reagent: long dsRNA against Drosophila genes, about 250 ng dsRNA per well
Time to read-out: 4 days
Challenge: cells fed 400 µM oleic acid bound to BSA
Detection: 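Cells imaged and segmented; ratio of lipid droplet area to nuclear area, log-transformed, then normalised as a B-score over the screen; higher means more stored lipid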
Reading the numbers: droplet/nuclear area B-score: higher = more stored lipid (overstorage)

gene	DRSC id	droplet/nuclear area B-score, replicate 1	droplet/nuclear area B-score, replicate 2
CG15233	DRSC04967	1.25	0.447
S6KL	DRSC19349	-0.221	-3.36
S6KL	DRSC21578	-1.13	0.882
S6KL	DRSC23147	-0.333	-0.1
HnRNP-K	DRSC07585	0.617	4.01
HnRNP-K	DRSC22734	-3.09	0.901
Taf10b	DRSC00792	0.61	0.0176
RhoGAP100F	DRSC15409	-0.255	0.674
Sod3	DRSC07324	-1.1	-0.768
CG2120	DRSC18207	0.679	-0.112
CG6415	DRSC02954	0.0351	-0.415
babos	DRSC03923	0.0285	0.355
babos	DRSC04397	-1.51	-0.305
CG1236	DRSC12203	0.78	0.103
slv	DRSC07685	-0.0814	0.135
CG3649	DRSC04400	0.905	-0.959
Kdm5	DRSC03133	0.643	0.206
sinu	DRSC09752	-0.505	0.0753
CG14275	DRSC02379	0.00215	0.166
Dyb	DRSC07208	0.0229	-1.95
Dyb	DRSC22862	3.85	0.168
Sox14	DRSC04656	0.937	-0.707
cib	DRSC18660	-1.63	-1.25
ND-B22	DRSC03193	-1.19	-0.0672
Rpe	DRSC06407	0.171	0.396
Als2	DRSC11806	0.396	-1.41
FoxL1	DRSC08717	-1.69	-0.039
CG12547	DRSC07759	-0.689	0.353
CG14096	DRSC10099	-0.686	-0.594
Ufsp1	DRSC04958	0.822	1.39
Dnaaf3	DRSC06684	0.818	0.377
Dh44	DRSC12747	-0.521	0.634
Dh44	DRSC16409	-0.277	-1.06
fs(2)ltoPP43	DRSC02067	3.06	0.014
CG6652	DRSC10686	-1.58	-0.379
Rnf146	DRSC11045	2.34	-0.138
TwdlV	DRSC12226	-0.517	0.69
Eig71Ef	DRSC11153	0.952	-0.293
cv-c	DRSC14969	-0.366	-0.265
cv-c	DRSC14970	0.262	-0.194
cv-c	DRSC14971	1.96	1.84
cv-c	DRSC14972	-1.11	0.268
cv-c	DRSC14973	0.964	1.75
cv-c	DRSC16428	0.395	0.225
cv-c	DRSC23199	0.985	1.64
ms(3)K81	DRSC14746	0.0892	-1.76
CG3640	DRSC04399	3.22	0.0116
CG31262	DRSC13216	0.00933	-0.00446
ND-49	DRSC17151	1.64	2.63
alpha-Est1	DRSC12612	-3.99	-0.282
CG11666	DRSC22379	0.0607	-0.313
CG12728	DRSC17883	-0.347	-1.2
CG30271	DRSC04170	3.44	0.0901
Dph2	DRSC16222	0.574	-5.9
nompB	DRSC03701	-1.55	0.268
nompB	DRSC03731	1.73	0.158
sfl	DRSC08828	-1.59	0.0913
sfl	DRSC08830	-0.619	0.179
Xport-A + Xport-B	DRSC15586	-0.126	-1.41
Duox	DRSC00571	-0.181	-0.68
del	DRSC03170	1.56	-2.77
CG15480	DRSC02490	-0.853	0.451
Sqor	DRSC08453	0.105	
CG15373	DRSC19663	-0.9	-0.00932
Atx2	DRSC15727	0.0487	-0.289
Atx2	DRSC23010	0.377	-0.655
CG1602	DRSC06601	1.33	1.33
bw	DRSC04005	0.184	-1.5
bw	DRSC04677	0.777	2.51
dtr	DRSC01847	2.47	-0.265
CG7044	DRSC16180	1.5	
isoQC	DRSC11790	-0.107	0.00115
CG15399	DRSC00413	-2.48	1.81
hyd	DRSC16971	-0.816	1.46
HisRS	DRSC19986	-0.977	0.512
dpr9	DRSC14534	-0.182	0.00671
dpr9	DRSC14985	-0.442	-0.262
dpr9	DRSC14986	-0.504	-0.227
CG14052	DRSC17907	3.07	-0.225
CG14052	DRSC18192	0.842	0.0158
CG1360	DRSC06406	-0.327	-0.259
Fbp1	DRSC11166	0.032	-0.0557
tant	DRSC11401	0.426	-1.2
Cka	DRSC03476	0.229	0.695
Cka	DRSC22858	0.0157	-1
CG11882	DRSC14425	-0.668	-0.753
CG6287	DRSC02947	-0.35	-0.312
ND-18	DRSC19441	-0.188	-0.0208
lt	DRSC03759	0.505	0.427
CG31817	DRSC01537	-1.06	-0.366
CG31817	DRSC01538	-2.59	1.11
CG31817	DRSC22476	-0.116	0.315
AstCC	DRSC02404	0.696	0.992
CG30039	DRSC21794	1.15	1.79
CG7420	DRSC00704	0.406	0.0462
HemK1	DRSC03253	0.307	-0.636
CG9578	DRSC20694	-1.31	-0.28
Obp59a	DRSC04160	1.1	0.254
CG14483	DRSC06455	-0.0481	-1.14
CG30091	DRSC21809	-0.00366	-1.06
CG11815	DRSC08209	0.271	1.57
Act57B	DRSC04042	-1.46	0.0469
CG17470	DRSC02621	-1.86	0.378
h-cup	DRSC15973	0.0776	
beat-Va	DRSC14192	-0.571	-0.661

Ordered by “droplet/nuclear area B-score, replicate 1” (high to low): some entries from above.
gene	DRSC id	droplet/nuclear area B-score, replicate 1	droplet/nuclear area B-score, replicate 2
CG14052	DRSC17907	3.07	-0.225
CG14052	DRSC18192	0.842	0.0158
tant	DRSC11401	0.426	-1.2
Cka	DRSC03476	0.229	0.695
Fbp1	DRSC11166	0.032	-0.0557
CG1360	DRSC06406	-0.327	-0.259
